Assay results as given in doi:10.1101/733709.
No constants are given. Whether binding was seen depends on the method and setting. Binding seen in cells or lysates may run through a third protein. A yes stands for co-enrichment or nearness to the bait. Other partners may have been found.

Amino acid sequences for entries named in this document (tags omitted). A change or cut given only in a name is not applied to a line headed by its entry.
UniProt P25694: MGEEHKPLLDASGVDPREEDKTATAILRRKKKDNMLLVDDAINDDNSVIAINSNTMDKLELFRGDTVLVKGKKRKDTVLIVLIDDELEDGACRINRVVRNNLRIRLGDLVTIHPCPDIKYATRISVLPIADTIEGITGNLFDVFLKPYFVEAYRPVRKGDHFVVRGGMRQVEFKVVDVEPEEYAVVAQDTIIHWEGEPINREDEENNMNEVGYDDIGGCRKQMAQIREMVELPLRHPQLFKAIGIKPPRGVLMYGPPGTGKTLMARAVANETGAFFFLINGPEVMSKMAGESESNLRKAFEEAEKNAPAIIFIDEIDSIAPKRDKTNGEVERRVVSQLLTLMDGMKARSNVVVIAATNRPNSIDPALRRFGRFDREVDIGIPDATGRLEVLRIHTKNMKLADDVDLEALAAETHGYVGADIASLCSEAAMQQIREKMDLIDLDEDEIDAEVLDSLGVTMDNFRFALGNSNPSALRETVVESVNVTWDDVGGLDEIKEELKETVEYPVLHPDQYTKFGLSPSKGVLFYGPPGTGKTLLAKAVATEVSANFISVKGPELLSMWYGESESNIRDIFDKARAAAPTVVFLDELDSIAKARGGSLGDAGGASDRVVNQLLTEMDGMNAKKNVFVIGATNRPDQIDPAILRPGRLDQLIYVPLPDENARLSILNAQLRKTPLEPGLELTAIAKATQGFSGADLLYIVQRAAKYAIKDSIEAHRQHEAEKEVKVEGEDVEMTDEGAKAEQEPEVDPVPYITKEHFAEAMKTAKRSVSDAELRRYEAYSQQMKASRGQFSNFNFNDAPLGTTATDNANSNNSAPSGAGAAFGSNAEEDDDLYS

Target: FLAG-tagged Cdc48-C115S (S. cerevisiae) (UniProt P25694)
Assay: affinity purification with mass spectrometry

B1: Rpf2 (protein, UniProt P36160 1-344)
chain: MIRTVKPKNARAKRALVKREAKLVENVKQALFIPGQSCNKNLHDIMVDLSALKKPDMKRFNRKNDIHPFEDMSPLEFFSEKNDCSLMVLMTSSKKRKNNMTFIRTFGYKIYDMIELMVADNFKLLSDFKKLTFTVGLKPMFTFQGAAFDTHPVYKQIKSLFLDFFRGESTDLQDVAGLQHVISMTIQGDFQDGEPLPNVLFRVYKLKSYKSDQGGKRLPRIELVEIGPRLDFKIGRIHTPSPDMVTEAHKKPKQLEMKTKKNVELDIMGDKLGRIHMGKQDLGKLQTRKMKGLKSKFDQGTEEGDGEVDEDYEDEASYSDDGQEYEEEFVSATDIEPSAKRQKK
  binding: binds
